# Measurements: PubChem BioAssay AID1487 (National Center for Advancing Translational Sciences (NCATS), 2009)
# The list shows a part of the results. Further columns of the screen follow, without active or inactive calls. The list favours compounds with an active or inconclusive main result. Potencies come from curve fits of mixed quality, noted in brackets.
# Experiment: qHTS Assay for Modulators of Lamin A Splicing
# Settings: HeLa LMNA splicing GFP/RFP minigene ratio, 48 h
# How it was run: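 S3 HeLa cells stably expressing lamin A-EGFP splicing minigene plus DsRed2, 600 cells/well, 48 h compound exposure at 37C. Laser-scanning cytometry; analysed as GFP (500-530 nm)/RFP (575-640 nm) total intensity ratio; 0.5% DMSO vehicle.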
# [1] = measured here: RFP viability control channel
# [2] = measured here: GFP splicing reporter channel
SMILES,AC50 [1],AC50 [2]
COc1ccc(C(=O)Nc2nc(C)c3cc4c(cc3n2)OCO4)cc1,"14.1 µM [rising, single point]",–
COc1cccc(-c2nc(NCc3ccccc3)c3ccccc3n2)c1,"12.6 µM [falling, partial curve]","20 µM [falling, single point]"
Cc1cccc(C(=O)N/N=C/c2ccc(OC3CSC3)cc2)c1,"5.62 µM [falling, full curve]","3.98 µM [falling, full curve, poor fit]"
COc1cc(/C=N/n2cnn(Cc3ccccc3Cl)c2=S)cc(OC)c1OC,–,"35.5 µM [falling, single point]"
Oc1ccc(N2CCN(C(=S)NCCc3ccccc3)CC2)cc1,–,"1.58 µM [falling, full curve, poor fit]"
Cc1ccc(CNC(=O)c2cn(C3CCCCC3)c(=O)c3c2c2ccccc2n3C)o1,–,"28.2 µM [rising, single point]"
Cc1cccc(S(=O)(=O)Nc2cccc3c2C(=O)c2ccccc2-3)c1,"35.5 µM [rising, single point]",–
COc1cccc(NC(=O)Nc2ccc(Cc3ccncc3)cc2)c1,"35.5 µM [rising, single point]",–
CCSc1nc(=S)n(Cc2ccccc2)c(C)c1C(C)=O,"15.8 µM [rising, single point]","14.1 µM [rising, single point]"
O=C(CNC1CCCCCC1)Nc1ccccc1N1CCOCC1,–,"3.55 µM [rising, single point]"
C/C(=N\NC(=O)CCCNc1ccc(C)cc1)c1ccccn1,"14.1 µM [rising, partial curve]","11.2 µM [rising, partial curve, poor fit]"
Cc1cc(C)nc(NN=C(c2ccccc2)c2ccccc2)n1,"25.1 µM [rising, single point]","14.1 µM [rising, single point]"
O=c1c(O)c(-c2ccccc2)oc2ccccc12,"25.1 µM [falling, single point]","12.6 µM [falling, partial curve]"
CC(=O)NCCNC(=O)c1ccc(-n2c(C)ccc2C)cc1,–,"35.5 µM [rising, single point]"
CC(C)N=c1scc(-c2cccs2)n1/N=C/c1ccc(O)c(O)c1O,"28.2 µM [falling, single point]","20 µM [falling, single point]"
c1ccc(C(c2ccccc2)N2CCN(c3nc4ccccc4n4cnnc34)CC2)cc1,"8.91 µM [rising, partial curve]","8.91 µM [rising, partial curve]"
CCC(=O)Nc1cccc(NC(=S)NC(=O)c2ccc(Cl)cc2Cl)c1,"35.5 µM [rising, single point]",–
COc1ccc(CCNc2ncnc3c2c(-c2ccccc2)cn3-c2ccc(Cl)cc2)cc1OC,–,"14.1 µM [falling, single point]"
CS(=O)(=O)N(CC(=O)NCc1ccco1)c1cccc([N+](=O)[O-])c1,"0.2 µM [falling, full curve, poor fit]",–

SMILES,AC50 [1],AC50 [2]
CCOc1ccc(OCc2ccc(C(=O)N(CC)CC)cc2)cc1,"2.24 µM [rising, partial curve]",–
COC(=O)c1ccc(NC(=O)C2CCN(c3ncnc4c3nc3n4CCCCC3)CC2)cc1,–,"28.2 µM [falling, partial curve]"
O=C1C2C3C=CC(c4ccccc4)(C2C(=O)N1c1cccc(Cl)c1)C1C(=O)N(c2cccc(Cl)c2)C(=O)C31 (centres undefined),"0.0501 µM [rising, full curve, poor fit]",–
COc1ccc(O)c(C(=O)c2cnc3nc4ccccc4n3c2)c1,"4.47 µM [rising, partial curve, poor fit]",–
CCOC(=O)CSc1nc2ccc(NC(=O)c3ccc(Cl)cc3)cc2s1,"0.00316 µM [falling, full curve, poor fit]",–
CC(=O)c1cccc(NC(=O)[C@@H](NC(N)=O)C(C)C)c1,–,"1.58 µM [falling, partial curve, poor fit]"
NS(=O)(=O)c1ccc(CNC(=O)Cc2ccccc2F)cc1,"22.4 µM [falling, single point]",–
N#CC1=C2SC=C(c3ccc(Br)cc3)N2CCCC1=O,"6.31 µM [falling, single point]",–
Cc1cc(C)cc(NC(=O)CSc2c(C(C)C)cnc3c2c(=O)n(C)c(=O)n3C)c1,–,"0.631 µM [rising, full curve, poor fit]"
Cc1cc(Nc2nc3ccccc3c3nnc(C)n23)ccc1Br,"17.8 µM [rising, single point]",–
O=C(NCc1cccnc1)Nc1cccc(F)c1,"6.31 µM [rising, single point]","0.141 µM [rising, partial curve]"
O=C(O)CNC(=O)c1ccccc1,"0.316 µM [falling, partial curve, poor fit]","0.0562 µM [falling, full curve, poor fit]"
Cc1cccc(OCCC(=O)Nc2ccc(C)c(S(=O)(=O)N3CCCCC3)c2)c1,"12.6 µM [rising, partial curve]",–
C=CCn1c(Cc2cccs2)nnc1SC/C=C/c1ccccc1,"20 µM [rising, single point]",–
COc1ccccc1N1CCN(CCCCCCOc2ccc(F)cc2)CC1,"35.5 µM [rising, single point]","17.8 µM [rising, single point]"
NS(=O)(=O)c1cccnc1Nc1cccc(C(F)(F)F)c1,"7.94 µM [rising, partial curve, poor fit]",–
O=C1CC[C@@H](C(=O)O)N1,"0.00562 µM [falling, full curve, poor fit]","0.00355 µM [falling, full curve, poor fit]"
Cc1cccc(NC(=O)CCCSc2nc3ccccc3[nH]2)c1,"12.6 µM [rising, single point]",–

# Record cards (already shown):
# CCOC(=O)CSc1nc2ccc(NC(=O)c3ccc(Cl)cc3)cc2s1 as listed: AC50 [1]: 0.00316 µM [falling, full curve, poor fit]
# O=C1C2C3C=CC(c4ccccc4)(C2C(=O)N1c1cccc(Cl)c1)C1C(=O)N(c2cccc(Cl)c2)C(=O)C31 (centres undefined) as listed: AC50 [1]: 0.0501 µM [rising, full curve, poor fit]
